Results are given in words; binding and its absence hold for the method and conditions named. In cells and extracts the contact can be indirect. Some binding calls cover weakened binding; strength is not graded here.
Biological target: E2F transcription factor 1 (E2F1) (human (endogenous in MCF-7, 786-O, NCI-H460)) (UniProt Q01094)
Assay: co-IP; cell lysates incubated with antibody-conjugated beads at 4 °C for 2 h, IgG as control; beads washed and boiled in SDS loading buffer; Western blot

Protein sequences, listed by entry. Tags and fused reporters are not part of them. Lines headed by an entry give the natural chain unless they say otherwise; changes in a name come on top.
UniProt Q01094: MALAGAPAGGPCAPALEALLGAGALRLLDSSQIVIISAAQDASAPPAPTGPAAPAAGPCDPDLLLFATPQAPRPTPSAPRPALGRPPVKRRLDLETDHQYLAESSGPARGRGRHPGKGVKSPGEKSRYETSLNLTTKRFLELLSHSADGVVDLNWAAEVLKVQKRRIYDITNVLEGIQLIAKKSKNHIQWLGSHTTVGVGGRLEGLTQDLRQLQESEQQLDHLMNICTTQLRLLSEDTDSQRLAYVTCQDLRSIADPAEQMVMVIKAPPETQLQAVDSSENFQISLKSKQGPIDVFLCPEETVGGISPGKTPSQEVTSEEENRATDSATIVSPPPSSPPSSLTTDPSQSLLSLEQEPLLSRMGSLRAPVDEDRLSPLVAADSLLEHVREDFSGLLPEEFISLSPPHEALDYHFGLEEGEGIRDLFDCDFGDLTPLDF
UniProt Q92830: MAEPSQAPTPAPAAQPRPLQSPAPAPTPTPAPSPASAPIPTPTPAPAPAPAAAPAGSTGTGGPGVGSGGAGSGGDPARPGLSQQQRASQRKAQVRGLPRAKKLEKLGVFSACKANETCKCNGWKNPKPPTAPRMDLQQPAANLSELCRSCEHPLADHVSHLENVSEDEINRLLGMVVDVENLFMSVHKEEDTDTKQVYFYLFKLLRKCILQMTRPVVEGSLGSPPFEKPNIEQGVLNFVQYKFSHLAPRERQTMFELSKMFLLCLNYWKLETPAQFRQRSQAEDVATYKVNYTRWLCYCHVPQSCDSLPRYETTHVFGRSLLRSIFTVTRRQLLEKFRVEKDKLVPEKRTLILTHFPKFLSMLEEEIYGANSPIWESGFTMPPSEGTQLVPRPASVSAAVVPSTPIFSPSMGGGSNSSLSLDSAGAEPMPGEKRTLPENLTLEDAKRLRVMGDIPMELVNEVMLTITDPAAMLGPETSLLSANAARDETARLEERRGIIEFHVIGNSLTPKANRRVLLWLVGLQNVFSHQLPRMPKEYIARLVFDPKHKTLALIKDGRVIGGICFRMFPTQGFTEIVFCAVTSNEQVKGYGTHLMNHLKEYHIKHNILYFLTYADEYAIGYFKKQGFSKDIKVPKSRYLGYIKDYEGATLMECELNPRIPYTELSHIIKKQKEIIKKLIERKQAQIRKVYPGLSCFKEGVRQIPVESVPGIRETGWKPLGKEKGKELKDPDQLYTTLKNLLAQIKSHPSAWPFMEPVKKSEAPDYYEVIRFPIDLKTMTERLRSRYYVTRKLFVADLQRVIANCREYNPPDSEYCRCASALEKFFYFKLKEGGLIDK

lysine acetyltransferase 2A (KAT2A) (from UniProt Q92830 1-837)
binding: binds

Reference: paper PMC9602169
